In assay [1] the target is endogenous ASK1 of neonatal rat cardiomyocytes (rat) (UniProt D3ZZH6). The assay is described as follows: co-immunoprecipitation of endogenous proteins from neonatal rat cardiomyocytes.
For assay [2] the target is unchanged. The assay is described as follows: co-immunoprecipitation of endogenous proteins from neonatal rat cardiomyocytes (anti-cTnT IP/anti-ASK1 blot and the reverse; normal rabbit serum as control).
In another assay the target is HA-tagged ASK1-WT (UniProt Q99683). The assay is described as follows: co-immunoprecipitation from 293T cells (anti-Flag IP/anti-HA blot and anti-HA IP/anti-Flag blot).

The chains behind the UniProt entries cited, without tags or fusion partners.
UniProt Q99683: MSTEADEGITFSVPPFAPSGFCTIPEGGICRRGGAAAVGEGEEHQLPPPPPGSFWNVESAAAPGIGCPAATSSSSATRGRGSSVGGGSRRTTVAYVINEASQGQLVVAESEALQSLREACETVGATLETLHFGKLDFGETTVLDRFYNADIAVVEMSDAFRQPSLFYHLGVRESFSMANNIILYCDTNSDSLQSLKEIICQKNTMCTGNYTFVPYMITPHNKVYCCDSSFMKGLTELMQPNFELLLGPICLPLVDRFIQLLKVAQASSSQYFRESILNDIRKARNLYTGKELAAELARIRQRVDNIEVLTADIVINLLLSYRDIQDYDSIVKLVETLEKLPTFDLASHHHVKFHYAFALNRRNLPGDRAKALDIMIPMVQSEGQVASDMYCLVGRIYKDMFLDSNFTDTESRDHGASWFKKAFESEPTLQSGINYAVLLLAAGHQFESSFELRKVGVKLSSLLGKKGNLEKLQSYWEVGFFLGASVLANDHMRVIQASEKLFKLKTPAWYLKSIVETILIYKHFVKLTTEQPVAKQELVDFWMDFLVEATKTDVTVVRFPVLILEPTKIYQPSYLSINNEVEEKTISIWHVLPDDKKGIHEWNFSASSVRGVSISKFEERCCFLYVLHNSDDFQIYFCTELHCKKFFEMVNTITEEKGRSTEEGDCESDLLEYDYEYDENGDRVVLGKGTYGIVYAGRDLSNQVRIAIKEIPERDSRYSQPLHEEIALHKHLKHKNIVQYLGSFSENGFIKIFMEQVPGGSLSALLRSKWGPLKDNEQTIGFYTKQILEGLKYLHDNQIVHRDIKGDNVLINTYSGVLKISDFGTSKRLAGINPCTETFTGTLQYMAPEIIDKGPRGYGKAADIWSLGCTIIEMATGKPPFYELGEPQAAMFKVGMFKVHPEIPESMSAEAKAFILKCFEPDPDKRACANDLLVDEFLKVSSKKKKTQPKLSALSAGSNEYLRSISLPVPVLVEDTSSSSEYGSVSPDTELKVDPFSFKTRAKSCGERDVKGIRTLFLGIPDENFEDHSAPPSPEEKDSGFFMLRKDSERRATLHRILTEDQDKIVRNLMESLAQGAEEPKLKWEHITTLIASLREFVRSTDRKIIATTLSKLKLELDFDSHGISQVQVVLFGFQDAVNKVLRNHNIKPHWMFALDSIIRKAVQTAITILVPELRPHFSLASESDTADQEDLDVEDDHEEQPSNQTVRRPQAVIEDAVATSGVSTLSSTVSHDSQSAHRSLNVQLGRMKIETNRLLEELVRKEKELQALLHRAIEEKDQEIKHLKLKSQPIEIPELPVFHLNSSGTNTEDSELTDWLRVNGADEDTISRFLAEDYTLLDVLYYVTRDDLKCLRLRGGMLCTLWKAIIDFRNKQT

These are yes or no findings as the source states them, for the method shown. In cells and extracts the contact can be indirect. Some results given as binding are weak or reduced against the parent protein; the word gives no strength.

Turning to “endogenous cTnT of neonatal rat cardiomyocytes (from UniProt P50753 2-299)”, the binding result in assay [1] and in assay [2] was “binds” each time. Regarding Flag-cTnT (from UniProt P45379 1-288), the binding result with HA-tagged ASK1-WT is recorded as “binds”.

Source of the values: US20060148057A1, “Thioredoxin mutants and uses thereof” (priority 2002, published 2006).
